Values of other authors, collected in US8222299B2, “Organosulfur prodrugs for the prevention and treatment of infectious diseases” (Allium Vitalis Incorporated, priority 2003, dated 2012).
At least one compound was matched to its structure with a doubt left.

Chains of the proteins cited; added tags and fusions are not shown. Residues count along the entry.
UniProt P00784, 134-345: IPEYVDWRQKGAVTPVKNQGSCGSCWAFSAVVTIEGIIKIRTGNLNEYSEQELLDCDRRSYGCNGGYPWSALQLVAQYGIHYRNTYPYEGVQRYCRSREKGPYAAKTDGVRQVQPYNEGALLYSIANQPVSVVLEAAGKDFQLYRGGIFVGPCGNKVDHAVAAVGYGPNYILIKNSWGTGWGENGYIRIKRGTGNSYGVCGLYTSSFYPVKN

Key:
[1] = Cu2+ induced; cited from earlier work
papain = papain (Carica papaya, UniProt P00784); conditions: excess allicin 0.06 mM; cited from earlier work
common cold = conditions: cited from earlier work
cells = conditions: cited from earlier work

In the case of `C=CCS[S+]([O-])CC=C` (centres unmarked) [Allicin, DiAllylThioSulfinate], the “LDL oxidation relative to the level of the control” value [1] is given as ~3 ×, the papain activity (papain) is given as “almost completely inactivate” and the frequency of infection (common cold; vs 65 for the placebo group) is given as 24. For the same molecule, the “average duration of symptoms” value (common cold; vs 5 days for the placebo group) was 1.5 days and the “replication rate of cells” value (cells) was “cut in half”.
